Results are given in words; binding and its absence hold for the method and conditions named. Some results given as binding are weak or reduced against the parent protein; the word gives no strength.
T1: P3 peptide
T1 sequence (peptide): VHWDFRQWWQPS

T2: C-reactive protein (human, UniProt P02741 19-224)
T2 construct: C-reactive protein (CRP), cyclic pentamer of five identical, noncovalently connected subunits of 206 amino acids each (printed); PDB 3PVO was used only for docking; also called CRP
T2 sequence (looked up): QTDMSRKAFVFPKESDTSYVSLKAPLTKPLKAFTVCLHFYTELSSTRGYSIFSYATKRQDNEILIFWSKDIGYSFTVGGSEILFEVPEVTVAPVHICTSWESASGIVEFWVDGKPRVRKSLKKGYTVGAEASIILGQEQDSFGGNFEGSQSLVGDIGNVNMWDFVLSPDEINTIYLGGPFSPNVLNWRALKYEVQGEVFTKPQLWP

B1: P2 peptide (peptide)
peptide: GGSDPEGMQGNY
notes: 12-mer identified by phage display against CRP; Immobilised on gold plates for PM-IRRAS; method is in the Supporting Information; also called peptide P2; source: synthetic peptide

How the values were obtained:
[1] = target: T1, P3 peptide; experiment: differential pulse voltammetry (electrochemical); P3 peptide covalently immobilised on TESPSA-silanised ITO, blocked with 1% BSA; 20 uL protein in PBS pH 7.4 for 30 min at room temperature; 1 mM Fc(CH2OH)2 in PBS as redox probe; drop of peak current fitted with the Hill equation, Kd = KA^n; both purified
[2] = target: T2, C-reactive protein; experiment: plaque test (ratio of eluted to added phages, O/I); phage clones on CRP; binding efficiency expressed as the ratio of the eluted to added phages; details in the Supporting Information
[3] = target: T2, C-reactive protein; experiment: ELISA; phage clones on CRP, phages detected by the enzymatic reaction of tagged anti-M13 antibodies, absorbance at 450 nm, compared with WT phage

Row | Molecule | binding [1] | binding [2] | binding [3]
1 | troponin T (from UniProt P45379 1-298) | no binding (tested: 2.5 μg mL^–1) |  | 
2 | B1 |  | binds | binds weakly

— paper PMC10535004, “Investigation of Peptides for Molecular Recognition of C-Reactive Protein–Theoretical and Experimental Studies” (Analytical Chemistry, 2023)
